Source: article PMC12828004
These are yes or no findings as the source states them, for the method shown. In cells and extracts the contact can be indirect. Here binding means that the protein was enriched with, or labelled near, the bait; the list need not be complete.

By UniProt entry, the sequences of proteins in these tests, tags left out.
UniProt P41145: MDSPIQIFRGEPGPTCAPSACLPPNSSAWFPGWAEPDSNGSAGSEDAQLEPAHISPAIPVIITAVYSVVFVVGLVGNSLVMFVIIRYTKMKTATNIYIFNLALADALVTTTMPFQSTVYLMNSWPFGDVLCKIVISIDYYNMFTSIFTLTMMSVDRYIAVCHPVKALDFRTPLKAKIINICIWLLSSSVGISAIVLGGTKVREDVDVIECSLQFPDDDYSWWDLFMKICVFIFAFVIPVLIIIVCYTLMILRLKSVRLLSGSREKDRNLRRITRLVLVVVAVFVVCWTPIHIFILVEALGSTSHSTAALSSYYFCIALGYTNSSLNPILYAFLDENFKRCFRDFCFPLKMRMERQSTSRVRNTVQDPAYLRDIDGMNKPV
UniProt O14745: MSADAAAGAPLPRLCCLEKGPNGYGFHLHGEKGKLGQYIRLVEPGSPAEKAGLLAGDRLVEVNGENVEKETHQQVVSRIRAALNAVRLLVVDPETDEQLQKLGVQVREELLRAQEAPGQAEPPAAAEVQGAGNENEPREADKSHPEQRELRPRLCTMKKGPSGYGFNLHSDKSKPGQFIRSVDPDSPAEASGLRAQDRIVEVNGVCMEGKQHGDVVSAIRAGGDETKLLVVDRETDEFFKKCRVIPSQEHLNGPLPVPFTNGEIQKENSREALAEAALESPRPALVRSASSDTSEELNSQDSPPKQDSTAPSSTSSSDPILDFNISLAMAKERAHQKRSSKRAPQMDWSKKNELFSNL

Molecular target: FLAG-tagged OPRK1, stably overexpressed in LNCaP cells (UniProt P41145)
Assay: affinity purification with mass spectrometry; LNCaP cells stably overexpressing FLAG-tagged OPRK1 against FLAG-vector controls; lysed under denaturing conditions (so in the source); anti-FLAG magnetic beads; biological triplicates; label-free LC-MS/MS

binding: binds
Substance: SLC9A3R1, endogenous (from UniProt O14745 1-358)
